Experimental data reported in US7932259B2, “Pyrrolo[2,3-d]pyrimidine derivatives substituted with a cyclic amino group” (Taisho Pharmaceutical Co., Ltd., priority 2002, dated 2011).
pIC50: −log10 of the molar value. Some results were stated once for a whole list of compounds, not compound by compound.

What follows are compounds tested against T1, CRF receptor (Macaca mulatta, UniProt Q76LL8) (assay: CRF receptor binding test). Conditions: monkey amygdala membranes; 125I-CRF 0.2 nM; 25° C. for 2 hours; read-out: IC50 (concentration of the test drug at which binding of 125I-CRF is inhibited by 50%).
T1 sequence (Q76LL8 24-415): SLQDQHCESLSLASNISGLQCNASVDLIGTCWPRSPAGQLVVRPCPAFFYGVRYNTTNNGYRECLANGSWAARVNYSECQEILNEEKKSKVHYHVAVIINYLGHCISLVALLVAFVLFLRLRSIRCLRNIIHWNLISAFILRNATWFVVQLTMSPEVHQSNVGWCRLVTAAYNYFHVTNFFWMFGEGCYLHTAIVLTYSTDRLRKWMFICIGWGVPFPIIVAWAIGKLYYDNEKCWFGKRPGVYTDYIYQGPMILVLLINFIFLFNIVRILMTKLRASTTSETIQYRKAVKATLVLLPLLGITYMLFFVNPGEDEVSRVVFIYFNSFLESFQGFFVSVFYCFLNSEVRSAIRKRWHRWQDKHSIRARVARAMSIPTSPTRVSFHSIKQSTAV

pIC50, ≥ 7.30:
COc1cc(C)c(-n2c(C)c(C)c3c(N4CCC(C#N)CC4)cc(C)nc32)c(C)c1 [Compound 2-103]
Cc1nc(N2CC[C@H](CO)[C@@H](C)C2)c2c(C)cn(-c3c(C)cc(Br)cc3C)c2n1 [Compound 1-286]
Cc1nc(N2CCC(CCCO)CC2)c2c(C)cn(-c3c(Cl)cc(Br)cc3Cl)c2n1 [Compound 1-099]
Cc1nc(N2CCCC(CCO)C2)c2c(C)c(C)n(-c3c(C)cc(Br)cc3C)c2n1 (stereo not shown) [Compound 1-039]
Cc1cc(N2CCC(C#N)CC2)c2c(C)c(C)n(-c3c(Cl)cc(Cl)cc3Cl)c2n1 [Compound 2-099]
Cc1cc(N2CCC(CCO)CC2)c2c(C)c(C)n(-c3ccc(Cl)cc3Cl)c2n1 [Compound 2-006]
Cc1cc(N2CCC(CO)CC2)c2c(C)cn(-c3ccc(Br)cc3Br)c2n1 [Compound 2-047]
Cc1cc(N2CCC(CCCO)CC2)c2c(C)c(C)n(-c3cc(Br)c(Br)cc3Br)c2n1 [Compound 2-087]
Cc1nc(N2CCCC(CO)C2)c2c(C)cn(-c3c(C)cc(Br)cc3C)c2n1 (stereo not shown) [Compound 1-019]
Cc1cc(N2CCC(CCO)CC2)c2c(C)cn(-c3c(Br)cc(C(C)C)cc3Br)c2n1 [Compound 2-053]
CCc1cc(Br)cc(CC)c1-n1cc(C)c2c(N3CCCCC3CCO)nc(C)nc21 (stereo not shown) [Compound 1-007]
Cc1nc(N2CCCC(C#N)C2)c2c(C)c(C)n(-c3c(C)cc(Br)cc3C)c2n1 (stereo not shown) [Compound 1-130]
Cc1cc(N2CCC(CCCO)CC2)c2c(C)c(C)n(-c3c(Cl)cc(Cl)cc3Cl)c2n1 [Compound 2-077]
Cc1nc(N2CCC(CC#N)CC2)c2c(C)cn(-c3c(Cl)cc(Br)cc3Cl)c2n1 [Compound 1-161]
COc1cc(C)c(-n2c(C)c(C)c3c(N4CCC(CCCO)CC4)cc(C)nc32)c(C)c1 [Compound 2-081]
CSc1cc(Br)cc(Br)c1-n1cc(C)c2c(N3CCCC(C#N)C3)nc(C)nc21 (single isomer, unassigned) [Compound 1-127]
Cc1nc(N2CCCC(C#N)CC2)c2c(C)cn(-c3c(C)cc(Br)cc3C)c2n1 (stereo not shown) [Compound 1-179]
Cc1cc(N2CCC(CCO)CC2)c2c(C)c(C)n(-c3cc(Br)c(Br)cc3Br)c2n1 [Compound 2-068]
Cc1cc(N2CCC(CC#N)CC2)c2c(C)cn(-c3cc(Br)c(Br)cc3Br)c2n1 [Compound 2-128]
Cc1cc(N2CCC(C#N)CC2)c2c(C)cn(-c3c(C)cc(Cl)cc3C)c2n1 [Compound 2-029]
CSc1cc(C(C)C)ccc1-n1cc(C)c2c(N3CCC(CCO)CC3)cc(C)nc21 [Compound 2-065]
Cc1nc(N2CCC(CCO)CC2)c2c(C)cn(-c3c(Br)cc(Br)cc3Br)c2n1 [Compound 1-078]
Cc1cc(N2CCC(CC#N)CC2)c2c(C)cn(-c3c(Cl)cc(Br)cc3Cl)c2n1 [Compound 2-117]
Cc1cc(N2CCC(CC#N)CC2)c2c(C)c(C)n(-c3c(Br)cc(C(C)C)cc3Br)c2n1 [Compound 2-112]
Cc1nc(N2CCCC(CC#N)C2)c2c(C)c(C)n(-c3c(Br)cc(C(F)(F)F)cc3Br)c2n1 (stereo not shown) [Compound 1-143]
Cc1cc(N2CCC(CO)CC2)c2c(C)c(C)n(-c3c(Br)cc(C(C)C)cc3Br)c2n1 [Compound 2-033]
Cc1cc(N2CCC(C#N)CC2)c2c(C)cn(-c3c(Br)cc(Br)cc3Br)c2n1 [Compound 2-096]
Cc1cc(N2CCC(C(O)CCO)CC2)c2c(C)c(C)n(-c3c(C)cc(Br)cc3C)c2n1 (stereo not shown) [Compound 2-091]
Cc1cc(N2CCC(CCO)CC2)c2c(C)c(C)n(-c3c(Br)cc(Cl)cc3Br)c2n1 [Compound 2-060]
Cc1cc(N2CCC(C#N)CC2)c2c(C)cn(-c3c(C)cc(Br)cc3C)c2n1 [Compound 2-014]
Cc1cc(C)c(-n2cc(C)c3c(N4CCCC(C#N)C4)nc(C)nc32)c(C)c1 (stereo not shown) [Compound 1-126]
Cc1cc(N2CCCC(CCO)C2)c2c(C)c(C)n(-c3c(C)cc(Br)cc3C)c2n1 (stereo not shown) [Compound 2-016]
Cc1cc(N2CCC(CCCO)CC2)c2c(C)cn(-c3c(Cl)cc(Cl)cc3Cl)c2n1 [Compound 2-078]
Cc1cc(N2CCC(CC#N)CC2)c2c(C)c(C)n(-c3c(C)cc(Cl)cc3C)c2n1 [Compound 2-111]
Cc1cc(C)c(-n2cc(C)c3c(N4CCC(CO)CC4)nc(C)nc32)c(C)c1 [Compound 1-051]
Cc1nc(N2CCCC(C)(CO)C2)c2c(C)c(C)n(-c3c(C)cc(Br)cc3C)c2n1 (stereo not shown) [Compound 1-104]
Cc1nc(N2CCC(C(C)O)CC2)c2c(C)cn(-c3c(C)cc(Cl)cc3C)c2n1 (stereo not shown) [Compound 1-284]
Cc1nc(N2CCC(C(C)O)CC2)c2c(C)c(C)n(-c3c(C)cc(Cl)cc3C)c2n1 (stereo not shown) [Compound 1-283]
Cc1cc(N2CCC(CCO)CC2)c2c(C)c(C)n(-c3c(Br)cc(Br)cc3Br)c2n1 [Compound 2-054]
Cc1cc(N2CCC(CO)CC2)c2c(C)cn(-c3ccc(C(F)(F)F)cc3Br)c2n1 [Compound 2-048]
Cc1nc(N2CCCCC2CCCO)c2c(C)c(C)n(-c3c(C)cc(Br)cc3C)c2n1 (stereo not shown) [Compound 1-009]
Cc1nc(N2CCC[C@H]2CO)c2c(C)cn(-c3c(C)cc(Br)cc3C)c2n1 [Compound 1-118]
Cc1nc(N2CCC(C#N)CC2)c2c(C)cn(-c3c(C)cc(Br)cc3C)c2n1 [Compound 1-151]
Cc1cc(N2CCC(C#N)CC2)c2c(C)c(C)n(-c3c(Br)cc(C(C)C)cc3Br)c2n1 [Compound 2-093]
Cc1nc(N2CCC(CC#N)CC2)c2c(C)c(C)n(-c3c(C)cc(Br)cc3C)c2n1 [Compound 1-154]
Cc1nc(N2CCCC(CO)C2)c2c(C)cn(-c3c(C)cc(Br)cc3C)c2n1 (single isomer, unassigned) [Compound 1-021]
Cc1nc(N2CCC(CO)CC2)c2c(C)cn(-c3c(Cl)cc(C(F)(F)F)cc3Cl)c2n1 [Compound 1-245]
CCc1cc(Br)cc(CC)c1-n1cc(C)c2c(N3CCCC(C#N)C3)nc(C)nc21 (stereo not shown) [Compound 1-142]
Cc1cc(N2CCC(CO)CC2)c2c(C)cn(-c3c(C)cc(Br)cc3C)c2n1 [Compound 2-005]
Cc1cc(N2CCC(CO)CC2)c2c(C)cn(-c3c(Cl)cc(Br)cc3Cl)c2n1 [Compound 2-038]
COc1cc(C)c(-n2c(C)c(C)c3c(N4CCC(CC#N)CC4)nc(C)nc32)c(C)c1 [Compound 1-164]
Cc1nc(N2CCC(CCO)CC2)c2c(C)cn(-c3c(Br)cc(Cl)cc3Br)c2n1 [Compound 1-208]
Cc1cc(N2CCC(CCCO)CC2)c2c(C)c(C)n(-c3c(C)cc(Br)cc3C)c2n1 [Compound 2-023]
Cc1nc(N2CCCC(C)(CO)C2)c2c(C)cn(-c3c(C)cc(Br)cc3C)c2n1 (stereo not shown) [Compound 1-105]
Cc1cc(N2CCC(CC#N)CC2)c2c(C)c(C)n(-c3c(Cl)cc(Br)cc3Cl)c2n1 [Compound 2-116]
Cc1nc(N2CCC(C#N)C2)c2c(C)cn(-c3c(C)cc(Br)cc3C)c2n1 (stereo not shown) [Compound 1-177]
CCc1cc(Br)cc(CC)c1-n1c(C)c(C)c2c(N3CCCC(C#N)C3)nc(C)nc21 (stereo not shown) [Compound 1-141]
Cc1nc(N2CCC(CC#N)C2)c2c(C)c(C)n(-c3c(C)cc(Br)cc3C)c2n1 (stereo not shown) [Compound 1-236]
Cc1cc(N2CCC(CO)CC2)c2c(C)cn(-c3c(Br)cc(Br)cc3Br)c2n1 [Compound 2-036]
Cc1nc(N2CCCC(CO)C2)c2c(C)c(C)n(-c3c(C)cc(Br)cc3C)c2n1 (single isomer, unassigned) [Compound 1-018]
Cc1cc(N2CCC(CCCO)CC2)c2c(C)c(C)n(-c3ccc(Cl)cc3Cl)c2n1 [Compound 2-008]
Cc1nc(N2CCCC(CO)C2)c2c(C)cn(-c3c(Br)cc(Br)cc3Br)c2n1 (stereo not shown) [Compound 1-032]
Cc1nc(N2CCC(CCO)CC2)c2c(C)c(C)n(-c3c(Br)cc(C(F)(F)F)cc3Br)c2n1 [Compound 1-072]
Cc1nc(N2CCC(CCCO)CC2)c2c(C)cn(-c3c(Br)cc(Br)cc3Br)c2n1 [Compound 1-097]
CCCCCCCCCC(=O)OCC1CCN(c2nc(C)nc3c2c(C)cn3-c2c(C)cc(Br)cc2C)CC1 [Compound 3-009, decanoic acid 1-[7-(4-bromo-2,6-dimethyl-phenyl)-2,5-dimethyl-7H-pyrrolo[2,3-d]pyrimidin-4-yl]-piperidin-4-ylmethyl ester]
Cc1nc(N2CCC(CO)CC2)c2c(C)cn(-c3c(Cl)cc(Br)cc3Cl)c2n1 [Compound 1-062]
COc1cc(C)c(-n2cc(C)c3c(N4CCC(CC#N)CC4)cc(C)nc32)c(C)c1 [Compound 2-123]
Cc1nc(N2CCC(CCO)CC2)c2c(C)c(C)n(-c3c(C)cc(Br)cc3C)c2n1 [Compound 1-073]
Cc1nc(N2CCC(CO)CC2)c2c(C)c(C)n(-c3c(C)cc(Cl)cc3C)c2n1 [Compound 1-067]
Cc1cc(N2CCC(C(O)CO)CC2)c2c(C)c(C)n(-c3c(C)cc(Br)cc3C)c2n1 (stereo not shown) [Compound 2-089]
